Here are results for 1 molecule from article doi:10.1101/679415.

Results are given in words; binding and its absence hold for the method and conditions named. In cells and extracts the contact can be indirect. Some entries that bind do so weakly or less than the wild type. Where a sequence is shown, tags or fusion partners need not be part of it.

The assay addresses T1, FLAG-tagged C. elegans USP-46 (C. elegans) (UniProt P34547).
T1 sequence: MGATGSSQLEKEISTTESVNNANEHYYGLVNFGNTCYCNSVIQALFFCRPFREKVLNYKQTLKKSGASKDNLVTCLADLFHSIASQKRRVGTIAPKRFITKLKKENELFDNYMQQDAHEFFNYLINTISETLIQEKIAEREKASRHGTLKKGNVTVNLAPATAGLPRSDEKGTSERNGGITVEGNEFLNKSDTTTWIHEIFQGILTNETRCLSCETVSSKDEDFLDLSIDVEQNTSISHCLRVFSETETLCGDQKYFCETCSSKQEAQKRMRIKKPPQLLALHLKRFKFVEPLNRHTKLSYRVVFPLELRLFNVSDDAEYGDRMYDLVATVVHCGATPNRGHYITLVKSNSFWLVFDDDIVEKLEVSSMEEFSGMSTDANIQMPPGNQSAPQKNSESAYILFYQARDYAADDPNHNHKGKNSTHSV
Kind of assay: co-IP.

B1: Myc-WDR-48 (wild type, C. elegans) (protein, UniProt Q20059 1-683)
chain: MSSCVNTSQTGPKKKISFIIRDEHEYSNRSAVSALQYDAQNGRLFTGGSDTIIRTWSVPHHKDAFSARGGVRSPGKNSPVQYQGSLEQHTDWVNDMILCGHGKILISASNDTTVKVWNIERDNKHGFIDCIRTHKDYVSCLAYAPIVEKAVSASFDHNIFVYDINANFKTVNNLIGCKDSIYSLATTPNLSLVLGAGTEKCIRLFDPRTNEKIMKLRGHTDNVRALVVNDDGTRALSAGSDATIRLWDIGQQRCIATCIAHEEGVWTLQVDSSFTTVYSAGKDKMVVKTPLYDFTKSQLLFKEEAPVKKLLLSEKDNPVSLWVGTWKSDIKRWSIRPSAQLSIGGDEDGPSTSNANHSVSASSSPPVTFKYIRVKDQKGQQSTPELVIPGAPAIKKHAMLSDKRHVLTRDSDGNVALYDVLAARKIKDYGKRIFEEVVDENSRQVYIPSWFVVDSKSGMLQITLDELDALSSWLSSKDAGFDDNDRETKLNYGGMMLRSLFERWPPCKMTNVDAADADDVQKATLNFISLPEHTPLIICEGNGRPLYRLLVGDAGKEFEANELAQIAPMWVIDAIERNQLPKFNKMPFYLLPHPSTNPKQPKKDRLSATEMLQVKKVMEHVYEKILSTNDDITVGSIPLNQIHTKMEMYCNDQRLEPDMDLRTVKHLYWKQSGELLLHYKPVK
Consider B1, for which the binding result was “binds”.
